Reference: PubChem BioAssay AID248 (DTP/NCI, 2004)
The list does not hold the whole screen: it gathers tests that were run many times, whatever their T/C, doses with no T/C, and many T/C values between a quarter and a half above the control. Other doses and runs of a compound stand elsewhere. T/C is the treated group as % of the vehicle group. Some doses have a count of surviving animals in place of a T/C: the source files T/C as zero there, which appears to mark a toxic dose or a test without result, not a measured value. Some survivor counts are full or nearly so, which does not show that the dose was tolerated: the source hardly ever lists a survival T/C far under the control, and the zero likely stands for such cases as well. Survivors were counted at the toxicity check, usually on the fifth day, unless a day is given; later deaths do not show. Schedule codes are those of the source, taken here to give the interval after Q, in days (D) or hours (H), and the number of doses after X. Some schedules carry Z or #; the key to these is not given. Some entries hold several experiments; their values stand side by side, smallest first. Where survival is the endpoint, the PubChem record calls one and a half times the control and up active, and a quarter to a half above the control has no call in these data; cut-offs in other NCI protocols can differ. Signs of the kind (2×) give the number of equal values in this list. Some T/C values carry the count of animals alive at the toxicity check (mostly the fifth day); where none is given, no animal had died by that day.

System: L1210 leukemia ip in BDF1 mice, survival T/C
Assay: NCI In Vivo Anticancer Drug Screen. Data for tumor model L1210 Leukemia (intraperitoneal) in B6D2F1 (BDF1) mice
Details: T/C endpoint: mean survival time, higher T/C = longer survival
[1] = dose: 6.25 mg/kg/injection, schedule: Q03HX024 (ip), vehicle: saline
[2] = dose: 53.0 mg/kg/injection, schedule: Q01DX Z (ip), vehicle: saline
[3] = dose: 80.0 mg/kg/injection, schedule: Q01DX Z (ip), vehicle: saline
[4] = dose: 93.0 mg/kg/injection, schedule: Q01DX Z (oral), vehicle: saline
[5] = dose: 100.0 mg/kg/injection, schedule: Q04DX003 (ip), vehicle: saline

## CN(C)c1ccc(Nc2c3ccccc3nc3ccccc23)cc1
dose: 3.13 mg/kg/injection, schedule: Q03HX024 (ip), vehicle: saline
  survivor count: 9 of 10
[1]
  T/C: 131 % of control
  survivor count: 0 of 10
dose: 6.25 mg/kg/injection, schedule: Q03HX040 (ip), vehicle: saline
  T/C: 125 % of control
dose: 12.5 mg/kg/injection, schedule: Q03HX008 (ip), vehicle: saline, evaluated on day 35
  T/C: 127 % of control
dose: 12.5 mg/kg/injection, schedule: Q03HX008 (ip), vehicle: saline, run until all animals had died
  T/C: 126 % of control
dose: 12.5 mg/kg/injection, schedule: Q06HX020 (ip), vehicle: saline
  T/C: 140 % of control
dose: 15.0 mg/kg/injection, schedule: Q01DX Z (ip), vehicle: saline
  T/C: 130 % of control
dose: 20.0 mg/kg/injection, schedule: Q01DX005 (ip), vehicle: saline
  T/C: 130 and 140 % of control
dose: 20.0 mg/kg/injection, schedule: Q01DX009 (ip), vehicle: saline
  T/C: 140 % of control
dose: 22.5 mg/kg/injection, schedule: Q01DX009 (ip), vehicle: saline
  T/C: 128 % of control
dose: 25.0 mg/kg/injection, schedule: Q01DX009 (ip), vehicle: saline
  T/C: 130 % of control
dose: 25.0 mg/kg/injection, schedule: Q03HX024 (ip), vehicle: saline
  survivor count: 10 of 10
dose: 25.0 mg/kg/injection, schedule: Q03HX040 (ip), vehicle: saline
  survivor count: 9 of 10
dose: 25.0 mg/kg/injection, schedule: Q06HX004 (ip), vehicle: saline
  T/C: 146 % of control
dose: 25.0 mg/kg/injection, schedule: Q06HX020 (ip), vehicle: saline
  survivor count: 10 of 10
dose: 25.0 mg/kg/injection, schedule: Q#A X Z (oral), vehicle: saline
  T/C: 131 % of control
dose: 26.5 mg/kg/injection, schedule: Q#A X Z (ip), vehicle: saline
  T/C: 133 % of control
dose: 30.0 mg/kg/injection, schedule: Q01DX Z (ip), vehicle: saline
  T/C: 136 % of control
dose: 30.0 mg/kg/injection, schedule: Q01DX Z (oral), vehicle: olive oil, sesame oil, peanut oil
  T/C: 133 % of control
dose: 35.0 mg/kg/injection, schedule: Q01DX007 (iv), vehicle: saline
  survivor count: 0 of 6
dose: 35.0 mg/kg/injection, schedule: Q01DX Z (sc), vehicle: saline
  T/C: 134 % of control
dose: 36.0 mg/kg/injection, schedule: Q01DX Z (ip), vehicle: saline
  T/C: 127 % of control
dose: 40.0 mg/kg/injection, schedule: Q01DX005 (ip), vehicle: saline
  survivor count: 9 of 10
dose: 40.0 mg/kg/injection, schedule: Q01DX009 (ip), vehicle: saline
  survivor count: 10 of 10
dose: 40.0 mg/kg/injection, schedule: Q#A X Z (ip), vehicle: saline
  T/C: 133 % of control
dose: 45.0 mg/kg/injection, schedule: Q01DX009 (ip), vehicle: saline
  T/C: 137 and 145 % of control
dose: 50.0 mg/kg/injection, schedule: Q01DX005 (ip), vehicle: Klucel (hydroxypropylcellulose) (HPC)
  T/C: 128 % of control
dose: 50.0 mg/kg/injection, schedule: Q01DX005 (ip), vehicle: other
  T/C: 138 % of control
dose: 50.0 mg/kg/injection, schedule: Q01DX009 (ip), vehicle: saline
  T/C: 127 and 135 % of control
dose: 50.0 mg/kg/injection, schedule: Q01DX Z (im), vehicle: saline
  T/C: 131 % of control
dose: 50.0 mg/kg/injection, schedule: Q03HX008 (ip), vehicle: saline
  survivor count: 0 of 10 and 2 of 10
dose: 50.0 mg/kg/injection, schedule: Q03HX016 (ip), vehicle: saline
  survivor count: 0 of 10
dose: 50.0 mg/kg/injection, schedule: Q03HX024 (ip), vehicle: saline
  survivor count: 4 of 10
dose: 50.0 mg/kg/injection, schedule: Q04DX003 (ip), vehicle: saline, evaluated on day 30
  T/C: 111 and 118 % of control
dose: 50.0 mg/kg/injection, schedule: Q04DX003 (ip), vehicle: saline, run until all animals had died
  T/C: 149 and 169 % of control
dose: 50.0 mg/kg/injection, schedule: Q06HX012 (ip), vehicle: saline
  T/C: 130 % of control
dose: 50.0 mg/kg/injection, schedule: Q06HX020 (ip), vehicle: saline
  survivor count: 0 of 10
dose: 50.0 mg/kg/injection, schedule: Q#A X Z (oral), vehicle: saline
  T/C: 132 % of control
dose: 53.0 mg/kg/injection, schedule: Q01DX007 (iv), vehicle: saline
  survivor count: 0 of 6
[2]
  T/C: 100, 116, 132, 173 % of control
  survivor count: 2 of 6
dose: 53.3 mg/kg/injection, schedule: Q01DX Z (ip), vehicle: carboxymethylcellulose (CMC)
  T/C: 134 % of control
dose: 53.3 mg/kg/injection, schedule: Q01DX Z (ip), vehicle: methylcellulose (MC)
  survivor count: 5 of 6
dose: 60.0 mg/kg/injection, schedule: Q01DX Z (ip), vehicle: saline
  T/C: 147 % of control
dose: 60.0 mg/kg/injection, schedule: Q01DX Z (oral), vehicle: saline
  T/C: 125 % of control
dose: 60.0 mg/kg/injection, schedule: Q#A X Z (ip), vehicle: saline
  T/C: 137 and 144 % of control
dose: 62.0 mg/kg/injection, schedule: Q01DX Z (oral), vehicle: saline
  T/C: 128 % of control (2×)
dose: 75.0 mg/kg/injection, schedule: Q03DX006 (oral), vehicle: saline
  T/C: 125 % of control (2×)
dose: 80.0 mg/kg/injection, schedule: Q01DX005 (ip), vehicle: saline
  survivor count: 4 of 10
dose: 80.0 mg/kg/injection, schedule: Q01DX007 (iv), vehicle: saline
  survivor count: 0 of 6
dose: 80.0 mg/kg/injection, schedule: Q01DX009 (ip), vehicle: saline
  survivor count: 1 of 10
dose: 80.0 mg/kg/injection, schedule: Q01DX009 (oral), vehicle: saline
  survivor count: 10 of 10
dose: 80.0 mg/kg/injection, schedule: Q01DX Z (ip), vehicle: carboxymethylcellulose (CMC)
  T/C: 134 % of control
[3]
  T/C: 111, 128, 135, 194 % of control
  survivor count: 1 of 6 and 5 of 6
dose: 90.0 mg/kg/injection, schedule: Q01DX009 (ip), vehicle: saline
  survivor count: 5 of 6
dose: 90.0 mg/kg/injection, schedule: Q#A X Z (ip), vehicle: saline
  T/C: 135 % of control
[4]
  T/C: 148 % of control
  survivor count: 6 of 6
dose: 100.0 mg/kg/injection, schedule: Q01DX001 (ip), vehicle: saline
  T/C: 139 % of control [9 of 10 alive]
dose: 100.0 mg/kg/injection, schedule: Q01DX005 (ip), vehicle: Klucel (hydroxypropylcellulose) (HPC)
  T/C: 138 % of control
dose: 100.0 mg/kg/injection, schedule: Q01DX005 (ip), vehicle: other
  T/C: 143 % of control
dose: 100.0 mg/kg/injection, schedule: Q01DX009 (ip), vehicle: saline
  survivor count: 5 of 6
dose: 100.0 mg/kg/injection, schedule: Q01DX Z (im), vehicle: saline
  T/C: 137 and 143 % of control
dose: 100.0 mg/kg/injection, schedule: Q04DX003 (ip), vehicle: Klucel (hydroxypropylcellulose) (HPC)
  T/C: 127 % of control
[5]
  T/C: 128 [5 of 6 alive] and 145 % of control
  survivor count: 4 of 10
dose: 100.0 mg/kg/injection, schedule: Q06HX004 (ip), vehicle: saline
  survivor count: 0 of 10
dose: 100.0 mg/kg/injection, schedule: Q#A X Z (oral), vehicle: saline
  T/C: 125 and 141 % of control
dose: 120.0 mg/kg/injection, schedule: Q01DX007 (iv), vehicle: saline
  survivor count: 0 of 6
